What was measured:
[1] = tested on: Rat; assay: concentration in blood after dosing; conditions: 0.25 h; dosed: Benzophenone; 5 mg/kg; oral; Female; F344
[2] = tested on: Rat; assay: concentration in blood after dosing; conditions: 5 min; dosed: Benzophenone; 10 mg/kg; oral; Female; F344
[3] = tested on: Rat; assay: concentration in blood after dosing; conditions: 0.25 h; dosed: Benzophenone; 10 mg/kg; oral; Female; F344
[4] = tested on: Rat; assay: concentration in plasma after dosing; conditions: dosed: Benzophenone, 10 mg/kg, oral, Male, F344
[5] = tested on: Mouse; assay: concentration in plasma after dosing; conditions: 0.5 h; dosed: Benzophenone; 30 mg/kg; oral; Male; B6C3F1
[6] = tested on: Mouse; assay: concentration in plasma after dosing; conditions: 2.5 h; dosed: Benzophenone; 15 mg/kg; iv; Male; B6C3F1
[7] = tested on: Mouse; assay: concentration in plasma after dosing; conditions: 1.5 h; dosed: Benzophenone; 15 mg/kg; iv; Female; B6C3F1
[8] = tested on: Rat; assay: concentration in plasma after dosing; conditions: dosed: Benzophenone, 5 mg/kg, oral, Female, F344
[9] = tested on: Rat; assay: concentration in plasma after dosing; conditions: dosed: Benzophenone, 10 mg/kg, oral, Female, F344
[10] = tested on: Mouse; assay: concentration in plasma after dosing; conditions: 5 min; dosed: Benzophenone; 15 mg/kg; oral; Male; B6C3F1
[11] = tested on: Mouse; assay: concentration in plasma after dosing; conditions: 10 min; dosed: Benzophenone; 15 mg/kg; oral; Female; B6C3F1
[12] = tested on: Rat; assay: concentration in plasma after dosing; conditions: dosed: Benzophenone, 10 mg/kg, oral, Female, F344; remark: listed apart in the source
[13] = tested on: Rat; assay: concentration in plasma after dosing; conditions: dosed: Benzophenone, 5 mg/kg, oral, Male, F344
[14] = tested on: Mouse; assay: concentration in plasma after dosing; conditions: 2.5 min; dosed: Benzophenone; 30 mg/kg; oral; Female; B6C3F1
[15] = tested on: Mouse; assay: concentration in plasma after dosing; conditions: 1.5 h; dosed: Benzophenone; 15 mg/kg; oral; Male; B6C3F1
[16] = tested on: Rat; assay: concentration in plasma after dosing; conditions: dosed: Benzophenone, 5 mg/kg, oral, Male, F344; remark: listed apart in the source
[17] = tested on: Rat; assay: concentration in plasma after dosing; conditions: dosed: Benzophenone, 5 mg/kg, oral, Male, F344; remark: listed apart in the source
[18] = tested on: Mouse; assay: concentration in plasma after dosing; conditions: 5 min; dosed: Benzophenone; 30 mg/kg; oral; Female; B6C3F1
[19] = tested on: Mouse; assay: concentration in plasma after dosing; conditions: 7 min; dosed: Benzophenone; 15 mg/kg; iv; Female; B6C3F1
[20] = tested on: Mouse; assay: concentration in plasma after dosing; conditions: 0.25 h; dosed: Benzophenone; 60 mg/kg; oral; Male; B6C3F1
[21] = tested on: Mouse; assay: concentration in plasma after dosing; conditions: 0.5 h; dosed: Benzophenone; 30 mg/kg; oral; Female; B6C3F1
[22] = tested on: Mouse; assay: concentration in plasma after dosing; conditions: 1.5 h; dosed: Benzophenone; 30 mg/kg; oral; Male; B6C3F1
[23] = tested on: Mouse; assay: concentration in plasma after dosing; conditions: 3 h; dosed: Benzophenone; 30 mg/kg; oral; Female; B6C3F1
[24] = tested on: Mouse; assay: concentration in plasma after dosing; conditions: 7 min; dosed: Benzophenone; 15 mg/kg; iv; Male; B6C3F1
[25] = tested on: Mouse; assay: concentration in plasma after dosing; conditions: 6 h; dosed: Benzophenone; 15 mg/kg; oral; Male; B6C3F1
[26] = tested on: Rat; assay: concentration in plasma after dosing; conditions: dosed: Benzophenone, 5 mg/kg, oral, Female, F344; remark: listed apart in the source
[27] = tested on: Rat; assay: concentration in plasma after dosing; conditions: 16 h; dosed: Benzophenone; 10 mg/kg; oral; Male; F344
[28] = tested on: Mouse; assay: concentration in plasma after dosing; conditions: 3 h; dosed: Benzophenone; 15 mg/kg; oral; Male; B6C3F1
[29] = tested on: Mouse; assay: concentration in plasma after dosing; conditions: 0.25 h; dosed: Benzophenone; 15 mg/kg; oral; Female; B6C3F1
[30] = tested on: Mouse; assay: concentration in plasma after dosing; conditions: 1 h; dosed: Benzophenone; 30 mg/kg; oral; Female; B6C3F1
[31] = tested on: Rat; assay: concentration in plasma after dosing; conditions: dosed: Benzophenone, 10 mg/kg, oral, Female, F344; remark: listed apart in the source
[32] = tested on: Mouse; assay: concentration in plasma after dosing; conditions: 2.5 min; dosed: Benzophenone; 30 mg/kg; oral; Male; B6C3F1
[33] = tested on: Mouse; assay: concentration in plasma after dosing; conditions: 5 min; dosed: Benzophenone; 60 mg/kg; oral; Female; B6C3F1
[34] = tested on: Rat; assay: concentration in plasma after dosing; conditions: dosed: Benzophenone, 10 mg/kg, oral, Male, F344; remark: listed apart in the source
[35] = tested on: Mouse; assay: concentration in plasma after dosing; conditions: 1 h; dosed: Benzophenone; 60 mg/kg; oral; Female; B6C3F1
[36] = tested on: Mouse; assay: concentration in plasma after dosing; conditions: 0.25 h; dosed: Benzophenone; 60 mg/kg; oral; Female; B6C3F1
[37] = tested on: Mouse; assay: concentration in plasma after dosing; conditions: 2 h; dosed: Benzophenone; 15 mg/kg; oral; Female; B6C3F1
[38] = tested on: Mouse; assay: concentration in plasma after dosing; conditions: 2 h; dosed: Benzophenone; 60 mg/kg; oral; Male; B6C3F1
[39] = tested on: Mouse; assay: concentration in plasma after dosing; conditions: 0.25 h; dosed: Benzophenone; 30 mg/kg; oral; Male; B6C3F1

O=C(c1ccccc1)c1ccccc1 [Benzophenone]
Conditions | concentration in blood [ng/mL] | concentration in plasma [ng/mL]
[1] | 885 | –
[2] | 711 | –
[3] | 1150 | –
[5] | – | 590
[6] | – | 43.1
[7] | – | 269
[10] | – | 1110
[11] | – | 564
[14] | – | 967
[15] | – | 69.3
[18] | – | 1340
[19] | – | 3420
[20] | – | 2350
[21] | – | 477
[22] | – | 207
[23] | – | 111
[24] | – | 3630
[25] | – | 15.1
[27] | – | 46.8
[28] | – | 11.4
[29] | – | 2680
[30] | – | 367
[32] | – | 1290
[33] | – | 2830
[35] | – | 663
[36] | – | 3610
[37] | – | 103
[38] | – | 428
[39] | – | 581

Conditions | concentration in plasma [ng/mL]
[4], 6 h | 193
[4], 10 min | 402
[8], 2 h | 167
[8], 5 min | 133
[9], 0.25 h | 417
[9], 24 h | 32.9
[12], 6 h | 167
[12], 10 min | 370
[13], 0.25 h | 180
[13], 24 h | 20.3
[16], 6 h | 69
[16], 10 min | 178
[17], 1 h | 87.5
[17], 2.5 min | 10.6
[26], 0.5 h | 174
[26], 10 h | 67
[31], 0.25 h | 427
[31], 24 h | 28.7
[34], 2 h | 296
[34], 5 min | 257

From EPA's CvTdb concentration-time database
